Literature values in US9089636B2, “Methods and devices for delivering GLP-1 and uses thereof” (VALERITAS, INC., priority 2004, dated 2015).
At least one compound was matched to its structure with a doubt left.

Columns and labels:
[1] = tested on: Min6 mouse islet cells
[2] = tested on: rat PC12 pheochromocytoma cell line
[3] = tested on: db/db mice
[4] = tested on: non-diabetic Sprague-Dawley rats
[5] = tested on: ob/ob mice
[6] = tested on: lean control rats and MSG-lesioned rats; details: rat, in vivo
[7] = tested on: circulating GLP-1; details: in vivo

Q: With `O=c1cc(N2CCOCC2)oc2c(-c3ccccc3)cccc12` [LY294002] as the compound, how does the “effect on the anti-apoptotic effects of GLP-1” value [1] read?
A: Its value is “partially blocked”.

Q: And the “effect on the differentiation actions of GLP-1” value [2]?
A: Its value is “abrogated”.

Q: With `CCCCCCCCCCCCCCCC(=O)N[C@@H](CCC(=O)NCCCC[C@H](NC(=O)[C@H](C)NC(=O)[C@H](C)NC(=O)[C@H](CCC(N)=O)NC(=O)CNC(=O)[C@H](CCC(=O)O)NC(=O)[C@H](CC(C)C)NC(=O)[C@H](Cc1ccc(O)cc1)NC(=O)[C@H](CO)NC(=O)[C@H](CO)NC(=O)[C@@H](NC(=O)[C@H](CC(=O)O)NC(=O)[C@H](CO)NC(=O)[C@@H](NC(=O)[C@H](Cc1ccccc1)NC(=O)[C@@H](NC(=O)CNC(=O)[C@H](CCC(=O)O)NC(=O)[C@H](C)NC(=O)[C@@H](N)Cc1cnc[nH]1)[C@@H](C)O)[C@@H](C)O)C(C)C)C(=O)N[C@@H](CCC(=O)O)C(=O)N[C@@H](Cc1ccccc1)C(=O)N[C@H](C(=O)N[C@@H](C)C(=O)N[C@@H](Cc1c[nH]c2ccccc12)C(=O)N[C@@H](CC(C)C)C(=O)N[C@H](C(=O)N[C@@H](CCCNC(=N)N)C(=O)NCC(=O)N[C@@H](CCCNC(=N)N)C(=O)NCC(=O)O)C(C)C)[C@@H](C)CC)C(=O)O` [NN2211, Liraglutide] as the compound, how does the β cell proliferation [3] read?
A: Its β cell proliferation is “increased”.

Q: And the “b cell mass, treated vs control rats” value ([4]; after 6 weeks of treatment)?
A: Its value is “comparable”.

Q: And the b cell mass ([4]; treated for 1 week)?
A: The b cell mass was “increased”.

Q: And the β cell proliferation [5]?
A: Its β cell proliferation is “not”.

Q: What about the body weight [6] of the same compound?
A: Its body weight is “induced weight loss”.

Q: With `C[C@H]1O[C@H](O[C@H]2[C@H](O)[C@@H](O)[C@@H](O[C@H]3[C@H](O)[C@@H](O)C(O)O[C@@H]3CO)O[C@@H]2CO)[C@H](O)[C@@H](O)[C@@H]1N[C@H]1C=C(CO)[C@@H](O)[C@H](O)[C@H]1O` (some centres unmarked) [acarbose] as the compound, how does the “levels of circulating GLP-1” value [7] read?
A: Its value is “increase”.
